Laboratory results: article PMC3709443 (Natural product communications, 2009)
≈ marks a conversion by molar mass, not a printed value.

Test system: Escherichia coli ATCC 35218
Assay: Antimicrobial susceptibility assay, E. coli
Assay type: cell-based
Conditions: ATCC35218, read-out: E. coli MIC
How it was run: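 Modified CLSI broth dilution with test compound dissolved in DMSO and serially diluted in 20% DMSO/saline, in duplicate. Inoculum prepared to target CFU/mL. Plates read at 630 nm before and after incubation. IC50 from percent growth vs concentration. MIC is the lowest concentration with no detectable growth. MBC is the lowest concentration giving no growth when 5 μL from clear wells is subcultured on agar. Ciprofloxacin control.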

`O=C(O)c1cn(C2CC2)c2cc(N3CCNCC3)c(F)cc2c1=O` [Ciprofloxacin, ciprofloxacin, reference compound] gave an MIC of 0.016 µg/mL (≈ 0.0483 µM).
